The source of these data is publication PMC4433056.

These are yes or no findings as the source states them, for the method shown. Binding seen in cells or lysates may run through a third protein. Some entries that bind do so weakly or less than the wild type. For some of these results: Tags and fused reporters may be left off the sequences shown.

Experiment [1] has as its target T1, EGFP-Bacurd2 fusion protein (murine) (UniProt O70479).
T1 sequence: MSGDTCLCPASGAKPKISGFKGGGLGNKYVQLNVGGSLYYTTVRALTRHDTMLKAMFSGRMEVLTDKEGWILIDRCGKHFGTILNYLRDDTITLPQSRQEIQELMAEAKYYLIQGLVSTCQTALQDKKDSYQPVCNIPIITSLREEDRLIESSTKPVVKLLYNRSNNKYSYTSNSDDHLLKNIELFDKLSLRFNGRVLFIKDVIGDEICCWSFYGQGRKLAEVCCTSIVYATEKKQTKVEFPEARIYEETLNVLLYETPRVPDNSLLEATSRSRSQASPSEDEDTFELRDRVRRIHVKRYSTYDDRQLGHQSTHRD
Nature of the experiment: co-IP; epitope-tagged constructs in transiently transfected HEK293T cells.

The target of experiment [2] is T2, Bacurd2(Δ221-316), C-terminal truncation mutant (murine).
T2 sequence: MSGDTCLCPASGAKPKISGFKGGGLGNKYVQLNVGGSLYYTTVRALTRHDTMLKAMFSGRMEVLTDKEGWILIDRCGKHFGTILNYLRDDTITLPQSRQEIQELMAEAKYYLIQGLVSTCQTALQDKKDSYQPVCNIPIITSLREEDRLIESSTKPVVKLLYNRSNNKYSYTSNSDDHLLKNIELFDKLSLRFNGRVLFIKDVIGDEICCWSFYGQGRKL
The experiment is described as follows: co-IP; epitope-tagged proteins in heterologous cells; reciprocal co-immunoprecipitation.

For experiment [3], the target named is T3, Bacurd2(Δ1-109), N-terminal truncation mutant (murine) (UniProt O70479).
T3 sequence: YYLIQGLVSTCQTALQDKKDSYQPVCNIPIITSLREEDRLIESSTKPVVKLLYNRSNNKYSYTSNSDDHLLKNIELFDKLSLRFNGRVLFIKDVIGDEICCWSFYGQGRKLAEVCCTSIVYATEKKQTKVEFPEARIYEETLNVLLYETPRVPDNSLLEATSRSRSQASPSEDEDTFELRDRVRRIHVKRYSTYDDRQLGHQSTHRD
The experiment is described as above.

The target in experiment [4] is T4, Bacurd2, endogenous in embryonic (E14.5) mouse brain (mouse (endogenous in E14.5 brain)) (UniProt O70479).
T4 sequence: T1 sequence
Nature of the experiment: co-IP; E14.5 mouse brain lysate (20 mM Tris pH 7.5, 150 mM NaCl, 1% IGEPAL, 0.1% SDS), mouse anti-Bacurd2 antibody overnight at 4°C, protein A sepharose, immunoblot for Rnd2. A general note: Immunoblotting shows a protein as a band on a membrane.

B1: FLAG-tagged Rnd2 (protein, UniProt Q9QYM5 1-227)
chain: MEGQSGRCKIVVVGDAECGKTALLQVFAKDAYPGSYVPTVFENYTASFEIDKRRIELNMWDTSGSSYYDNVRPLAYPDSDAVLICFDISRPETLDSVLKKWQGETQEFCPNAKVVLVGCKLDMRTDLATLRELSKQRLIPVTHEQGTVLAKQVGAVSYVECSSRSSERSVRDVFHVATVASLGRGHRQLRRTDSRRGLQRSTQLSGRPDRGNEGEMHKDRAKSCNLM
Take B1: the binding result in experiment [1] is given as “binds”; in experiment [2] it was “no binding”; in experiment [3], “binds”.

B2: Rnd2, endogenous in embryonic (E14.5) mouse brain (protein, UniProt Q9QYM5 1-227)
chain: B1 chain
Regarding B2, the binding entry in experiment [4] is given as “binds”.
